From the supplement of paper PMC12819154, “High-throughput peptide-centric local stability assay extends protein–ligand identification to membrane proteins, tissues and bacteria” (Nature Structural & Molecular Biology, 2025) come the findings set out here.

Sequences of proteins named here, by UniProt entry; tags and fusion partners are left off. A change or cut given only in a name is not applied to a line headed by its entry.
UniProt Q8WWW8: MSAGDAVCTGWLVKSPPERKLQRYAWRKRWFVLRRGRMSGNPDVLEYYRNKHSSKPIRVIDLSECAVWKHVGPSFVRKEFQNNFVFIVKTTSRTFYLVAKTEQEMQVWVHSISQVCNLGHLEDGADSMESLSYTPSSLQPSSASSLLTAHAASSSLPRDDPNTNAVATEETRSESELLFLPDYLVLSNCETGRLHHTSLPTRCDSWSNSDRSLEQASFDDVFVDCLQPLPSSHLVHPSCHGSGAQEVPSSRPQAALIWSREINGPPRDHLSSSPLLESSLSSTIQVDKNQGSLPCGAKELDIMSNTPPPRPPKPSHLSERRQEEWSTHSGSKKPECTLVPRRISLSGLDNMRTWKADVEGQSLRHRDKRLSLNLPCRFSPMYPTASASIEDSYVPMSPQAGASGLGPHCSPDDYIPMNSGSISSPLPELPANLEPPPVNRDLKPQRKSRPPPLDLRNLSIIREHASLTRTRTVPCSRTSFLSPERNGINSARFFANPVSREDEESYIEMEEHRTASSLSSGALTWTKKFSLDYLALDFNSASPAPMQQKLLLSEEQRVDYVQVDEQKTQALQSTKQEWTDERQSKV
UniProt Q8TAG9: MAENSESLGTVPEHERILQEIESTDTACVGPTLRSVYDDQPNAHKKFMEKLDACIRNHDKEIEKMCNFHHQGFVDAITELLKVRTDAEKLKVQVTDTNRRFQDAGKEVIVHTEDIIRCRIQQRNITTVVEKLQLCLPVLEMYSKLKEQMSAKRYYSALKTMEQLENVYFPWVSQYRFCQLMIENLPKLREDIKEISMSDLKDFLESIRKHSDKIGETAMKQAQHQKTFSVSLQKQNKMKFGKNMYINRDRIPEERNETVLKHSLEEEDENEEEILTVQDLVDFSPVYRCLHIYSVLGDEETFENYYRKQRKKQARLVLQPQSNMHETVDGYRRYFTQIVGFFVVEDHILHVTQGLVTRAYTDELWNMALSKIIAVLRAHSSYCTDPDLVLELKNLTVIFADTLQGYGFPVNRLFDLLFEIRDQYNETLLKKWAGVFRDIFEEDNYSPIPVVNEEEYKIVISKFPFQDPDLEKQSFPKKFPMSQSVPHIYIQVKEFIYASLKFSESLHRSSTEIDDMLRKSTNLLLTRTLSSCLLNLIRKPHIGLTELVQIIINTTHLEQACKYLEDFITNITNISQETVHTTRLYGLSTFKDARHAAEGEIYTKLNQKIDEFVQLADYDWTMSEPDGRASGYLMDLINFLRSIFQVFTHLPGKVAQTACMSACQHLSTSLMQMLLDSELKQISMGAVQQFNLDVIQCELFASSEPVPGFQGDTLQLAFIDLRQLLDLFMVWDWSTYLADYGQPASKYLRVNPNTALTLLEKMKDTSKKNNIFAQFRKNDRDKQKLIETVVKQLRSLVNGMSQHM
UniProt Q8WV41: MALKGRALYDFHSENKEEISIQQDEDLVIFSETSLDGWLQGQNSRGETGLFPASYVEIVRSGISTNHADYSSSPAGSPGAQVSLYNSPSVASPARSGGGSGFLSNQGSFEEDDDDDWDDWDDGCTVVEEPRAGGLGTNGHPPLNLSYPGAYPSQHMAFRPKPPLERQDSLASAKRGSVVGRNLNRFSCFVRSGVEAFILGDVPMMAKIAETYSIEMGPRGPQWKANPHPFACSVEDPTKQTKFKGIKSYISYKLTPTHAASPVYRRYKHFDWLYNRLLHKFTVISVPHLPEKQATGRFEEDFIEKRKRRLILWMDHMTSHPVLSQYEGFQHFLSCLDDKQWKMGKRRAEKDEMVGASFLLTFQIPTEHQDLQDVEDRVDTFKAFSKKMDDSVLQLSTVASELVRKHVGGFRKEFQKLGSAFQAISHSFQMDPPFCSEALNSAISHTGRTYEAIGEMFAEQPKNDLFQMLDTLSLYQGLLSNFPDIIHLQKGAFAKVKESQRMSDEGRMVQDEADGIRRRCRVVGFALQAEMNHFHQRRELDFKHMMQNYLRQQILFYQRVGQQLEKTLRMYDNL
UniProt Q8TB37: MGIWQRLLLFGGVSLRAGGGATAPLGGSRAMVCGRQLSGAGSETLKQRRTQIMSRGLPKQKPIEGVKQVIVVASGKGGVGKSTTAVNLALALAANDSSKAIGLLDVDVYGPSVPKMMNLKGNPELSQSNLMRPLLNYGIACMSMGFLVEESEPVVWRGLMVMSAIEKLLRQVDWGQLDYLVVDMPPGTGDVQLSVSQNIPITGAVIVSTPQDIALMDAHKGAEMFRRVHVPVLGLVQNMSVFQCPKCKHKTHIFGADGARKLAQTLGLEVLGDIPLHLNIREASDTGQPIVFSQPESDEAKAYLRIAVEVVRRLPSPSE
UniProt Q8TCU4: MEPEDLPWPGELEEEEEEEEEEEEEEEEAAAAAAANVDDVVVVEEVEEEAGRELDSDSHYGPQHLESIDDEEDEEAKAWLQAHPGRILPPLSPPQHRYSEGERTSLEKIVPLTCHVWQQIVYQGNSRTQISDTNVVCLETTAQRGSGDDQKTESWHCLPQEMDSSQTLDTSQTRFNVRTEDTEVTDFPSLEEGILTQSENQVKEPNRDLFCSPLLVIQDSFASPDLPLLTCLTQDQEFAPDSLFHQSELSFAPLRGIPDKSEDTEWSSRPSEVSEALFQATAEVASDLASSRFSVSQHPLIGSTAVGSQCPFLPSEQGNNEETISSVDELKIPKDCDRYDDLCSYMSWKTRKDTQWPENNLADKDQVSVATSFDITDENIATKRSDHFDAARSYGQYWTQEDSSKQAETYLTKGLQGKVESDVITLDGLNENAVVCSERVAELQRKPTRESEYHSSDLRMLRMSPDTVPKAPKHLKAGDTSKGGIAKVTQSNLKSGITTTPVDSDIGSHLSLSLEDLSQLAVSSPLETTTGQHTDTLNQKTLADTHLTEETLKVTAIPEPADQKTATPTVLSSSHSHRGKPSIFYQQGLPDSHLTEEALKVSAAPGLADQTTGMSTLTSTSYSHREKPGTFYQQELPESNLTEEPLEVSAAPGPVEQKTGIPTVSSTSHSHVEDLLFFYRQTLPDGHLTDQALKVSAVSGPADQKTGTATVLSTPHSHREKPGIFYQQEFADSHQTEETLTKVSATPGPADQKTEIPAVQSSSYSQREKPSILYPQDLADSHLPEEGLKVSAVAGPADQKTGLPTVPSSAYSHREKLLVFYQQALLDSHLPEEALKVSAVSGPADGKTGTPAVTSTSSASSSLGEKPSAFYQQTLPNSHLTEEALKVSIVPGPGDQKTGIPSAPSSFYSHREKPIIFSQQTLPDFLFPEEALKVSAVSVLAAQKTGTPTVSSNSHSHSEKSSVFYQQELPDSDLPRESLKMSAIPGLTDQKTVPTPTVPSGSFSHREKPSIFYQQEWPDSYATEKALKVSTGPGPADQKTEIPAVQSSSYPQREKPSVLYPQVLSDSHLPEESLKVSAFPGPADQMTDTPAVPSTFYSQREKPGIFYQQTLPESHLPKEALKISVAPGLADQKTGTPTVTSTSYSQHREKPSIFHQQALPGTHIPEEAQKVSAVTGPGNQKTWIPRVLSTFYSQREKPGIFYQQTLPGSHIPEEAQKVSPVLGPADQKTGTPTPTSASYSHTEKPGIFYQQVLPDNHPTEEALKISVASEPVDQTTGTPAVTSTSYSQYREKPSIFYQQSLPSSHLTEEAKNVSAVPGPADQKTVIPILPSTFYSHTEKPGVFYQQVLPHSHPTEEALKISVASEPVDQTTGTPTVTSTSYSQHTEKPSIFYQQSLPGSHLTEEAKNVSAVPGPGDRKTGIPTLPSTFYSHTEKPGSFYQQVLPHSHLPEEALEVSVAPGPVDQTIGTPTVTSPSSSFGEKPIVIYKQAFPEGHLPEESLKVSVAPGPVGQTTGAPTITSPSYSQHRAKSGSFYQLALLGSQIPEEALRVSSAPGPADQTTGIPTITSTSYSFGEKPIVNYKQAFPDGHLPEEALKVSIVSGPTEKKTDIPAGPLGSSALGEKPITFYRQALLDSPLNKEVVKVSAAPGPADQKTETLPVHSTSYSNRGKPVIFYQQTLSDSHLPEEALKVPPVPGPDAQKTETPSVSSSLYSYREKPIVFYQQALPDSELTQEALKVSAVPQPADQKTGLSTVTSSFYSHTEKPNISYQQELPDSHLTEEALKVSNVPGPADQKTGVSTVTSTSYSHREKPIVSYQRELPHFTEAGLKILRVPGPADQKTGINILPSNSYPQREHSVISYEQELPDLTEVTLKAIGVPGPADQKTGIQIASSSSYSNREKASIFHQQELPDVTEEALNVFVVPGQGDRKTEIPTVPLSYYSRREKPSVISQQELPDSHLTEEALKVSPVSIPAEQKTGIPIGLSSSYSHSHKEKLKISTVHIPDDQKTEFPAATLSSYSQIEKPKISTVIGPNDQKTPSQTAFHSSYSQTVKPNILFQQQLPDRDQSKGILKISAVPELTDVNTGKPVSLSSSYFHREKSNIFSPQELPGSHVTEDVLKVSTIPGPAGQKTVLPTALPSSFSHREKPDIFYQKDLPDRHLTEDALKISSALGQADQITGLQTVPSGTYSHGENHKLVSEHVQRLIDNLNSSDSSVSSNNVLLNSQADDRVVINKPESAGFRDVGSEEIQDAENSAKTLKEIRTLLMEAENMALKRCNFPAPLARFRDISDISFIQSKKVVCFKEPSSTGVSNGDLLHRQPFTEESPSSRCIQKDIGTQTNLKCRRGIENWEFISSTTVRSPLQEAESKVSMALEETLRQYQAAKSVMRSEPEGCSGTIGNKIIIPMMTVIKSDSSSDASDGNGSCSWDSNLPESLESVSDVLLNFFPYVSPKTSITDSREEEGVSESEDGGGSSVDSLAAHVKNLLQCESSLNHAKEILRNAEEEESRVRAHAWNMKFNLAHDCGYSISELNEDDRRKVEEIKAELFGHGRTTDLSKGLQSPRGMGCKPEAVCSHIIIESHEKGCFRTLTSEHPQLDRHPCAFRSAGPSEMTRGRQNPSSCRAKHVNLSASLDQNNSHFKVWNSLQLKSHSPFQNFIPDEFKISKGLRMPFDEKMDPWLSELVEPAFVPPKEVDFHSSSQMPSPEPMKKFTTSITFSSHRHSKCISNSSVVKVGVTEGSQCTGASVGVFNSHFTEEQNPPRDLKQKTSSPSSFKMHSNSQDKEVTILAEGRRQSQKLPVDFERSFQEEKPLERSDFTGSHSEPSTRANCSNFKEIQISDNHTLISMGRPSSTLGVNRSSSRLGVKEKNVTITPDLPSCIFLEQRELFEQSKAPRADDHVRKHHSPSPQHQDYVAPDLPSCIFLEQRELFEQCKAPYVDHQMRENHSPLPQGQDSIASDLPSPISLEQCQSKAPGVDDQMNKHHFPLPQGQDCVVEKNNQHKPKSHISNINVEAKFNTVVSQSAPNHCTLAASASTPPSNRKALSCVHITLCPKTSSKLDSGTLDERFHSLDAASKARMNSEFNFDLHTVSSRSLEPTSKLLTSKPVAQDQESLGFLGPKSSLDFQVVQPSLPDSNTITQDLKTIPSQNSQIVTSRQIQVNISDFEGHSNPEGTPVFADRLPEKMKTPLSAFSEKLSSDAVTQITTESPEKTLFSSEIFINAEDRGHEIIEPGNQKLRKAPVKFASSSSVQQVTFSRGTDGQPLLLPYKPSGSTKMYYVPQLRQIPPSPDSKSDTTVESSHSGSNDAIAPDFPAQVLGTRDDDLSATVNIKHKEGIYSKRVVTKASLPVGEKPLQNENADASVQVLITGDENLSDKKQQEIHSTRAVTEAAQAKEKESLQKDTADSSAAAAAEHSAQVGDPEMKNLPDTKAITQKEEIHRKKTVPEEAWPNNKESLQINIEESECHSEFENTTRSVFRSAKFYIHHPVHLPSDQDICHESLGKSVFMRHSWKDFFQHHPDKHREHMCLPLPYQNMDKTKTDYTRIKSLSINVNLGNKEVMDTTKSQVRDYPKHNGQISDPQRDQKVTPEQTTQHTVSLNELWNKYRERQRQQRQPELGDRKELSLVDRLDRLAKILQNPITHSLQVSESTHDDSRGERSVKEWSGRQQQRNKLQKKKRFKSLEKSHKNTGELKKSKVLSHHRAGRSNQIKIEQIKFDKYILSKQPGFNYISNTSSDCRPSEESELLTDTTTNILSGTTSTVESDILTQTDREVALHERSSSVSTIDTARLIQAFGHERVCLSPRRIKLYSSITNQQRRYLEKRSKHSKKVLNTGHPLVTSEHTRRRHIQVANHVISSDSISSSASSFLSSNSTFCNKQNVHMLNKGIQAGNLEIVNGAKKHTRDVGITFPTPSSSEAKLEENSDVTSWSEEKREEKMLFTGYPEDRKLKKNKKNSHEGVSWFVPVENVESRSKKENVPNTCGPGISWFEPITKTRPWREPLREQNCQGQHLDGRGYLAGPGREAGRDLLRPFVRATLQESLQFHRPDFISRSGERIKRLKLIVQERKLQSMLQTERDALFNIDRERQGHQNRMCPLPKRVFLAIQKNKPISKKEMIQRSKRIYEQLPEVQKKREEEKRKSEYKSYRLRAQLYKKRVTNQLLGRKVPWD
UniProt Q8WUH1: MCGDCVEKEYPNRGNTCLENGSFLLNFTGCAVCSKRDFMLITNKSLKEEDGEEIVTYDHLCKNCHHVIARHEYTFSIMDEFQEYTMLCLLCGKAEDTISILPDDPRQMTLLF

The other results are listed elsewhere or left out. Most entries show no effect beyond the scatter of the controls.

Compound in this test: Cc1nc(Nc2ncc(C(=O)Nc3c(C)cccc3Cl)s2)cc(N2CCN(CCO)CC2)n1 [dasatinib]
Briefly: log2 fold change of tryptic peptide abundance, ligand vs vehicle (limited proteolysis) (log2 ratio); higher = more trypsin-susceptible (destabilized). The settings on record: ligand concentration: 5 uM; sample: K562 cleared lysate.
For “GRPEL2 (peptide sequence: LEKEVQDLTVR, peptide start residue: 69) (UniProt Q8TAA5)”, the log2 fold change is -0.08.

In the case of “GAB3 (peptide sequence: EDEESYIEMEEHR, peptide start residue: 501) (UniProt Q8WWW8)”, the log2 fold change was determined as 1.04.

Regarding “USP33 (peptide sequence: SRPGSVVPTTLFQGIK, peptide start residue: 243) (UniProt Q8TEY7)”, the log2 fold change stood at 0.218.

On to “EDARADD (peptide sequence: IKLDPCHPTVK, peptide start residue: 127) (UniProt Q8WWZ3)”, for which the log2 fold change is -0.0938.

For the target “CHMP7 (peptide sequence: EVNSTDWDSK, peptide start residue: 43) (UniProt Q8WUX9)”, the log2 fold change was -0.0953.

For “ABHD5 (peptide sequence: IAGPFGLSLVQR, peptide start residue: 216) (UniProt Q8WTS1)”, the log2 fold change was -0.204.

As for “EXOC6 (peptide sequence: STNLLLTR, peptide start residue: 520) (UniProt Q8TAG9)”, the log2 fold change was -0.186.

For “UniProt Q92615 (peptide sequence: EPPSSPLQPQK, peptide start residue: 660)”, the log2 fold change was -0.289.

“SNX33 (peptide sequence: YKHFDWLYNR, peptide start residue: 267) (UniProt Q8WV41)”: the log2 fold change was determined as 0.137.

On to “CHTF18 (peptide sequence: LWDLVVFGHERPSR, peptide start residue: 310) (UniProt Q8WVB6)”, for which the log2 fold change is -0.391.

In the case of “NUBPL (peptide sequence: GLMVMSAIEK, peptide start residue: 158) (UniProt Q8TB37)”, the log2 fold change came out at 0.177.

In the case of “ALMS1 (peptide sequence: DISDISFIQSK, peptide start residue: 2288) (UniProt Q8TCU4)”, the log2 fold change is 0.488.

As for “TMEM131 (peptide sequence: KQEEKEK, peptide start residue: 1396) (UniProt Q92545)”, the log2 fold change was determined as 0.221.

With “BRSK1 (peptide sequence: ALEMAQHSQR, peptide start residue: 420) (UniProt Q8TDC3)”, the log2 fold change worked out at 0.598.

In the case of “GPT2 (peptide sequence: VKDFHINFLEK, peptide start residue: 511) (UniProt Q8TD30)”, the log2 fold change was 0.137.

For the target “UniProt Q8WUH1 (peptide sequence: NCHHVIAR, peptide start residue: 63)”, the log2 fold change is 0.61.
